The other results are listed elsewhere or left out.
What was measured:
Assay in all cases: log2 fold change, soluble protein after heating vs DMSO (PISA); higher = thermal stabilisation; K562 cells, 10 uM, 30 min; active = over 0.2 and 3.5 SD of the protein, either way, in both replicates (recomputed)
[1] = compound: CC[C@@H]1C(=O)N(C)c2cnc(Nc3ccc(C(=O)N[C@H]4CC[C@H](N5CCN(CC6CC6)CC5)CC4)cc3OC)nc2N1C(C)C [volasertib]
Method in brief: (§1)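 K562 cells at 2×10^6 cells/mL were treated for 30 min with 10 μM compound, and aliquots were heated for 3 min over 48°C-58°C before pooling. Extraction used PBS with 0.5% NP-40 at 4°C, and soluble protein was the supernatant after 21,000xg for 90 min, measured by TMTpro 16plex LC-MS/MS with channel sums equalised. Thermal stability values, relative to control samples and from duplicates, are log2 fold changes.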

Protein sequences, listed by entry. Tags and fused reporters are not part of them. Lines headed by an entry give the natural chain unless they say otherwise; changes in a name come on top.
UniProt Q9H1A3: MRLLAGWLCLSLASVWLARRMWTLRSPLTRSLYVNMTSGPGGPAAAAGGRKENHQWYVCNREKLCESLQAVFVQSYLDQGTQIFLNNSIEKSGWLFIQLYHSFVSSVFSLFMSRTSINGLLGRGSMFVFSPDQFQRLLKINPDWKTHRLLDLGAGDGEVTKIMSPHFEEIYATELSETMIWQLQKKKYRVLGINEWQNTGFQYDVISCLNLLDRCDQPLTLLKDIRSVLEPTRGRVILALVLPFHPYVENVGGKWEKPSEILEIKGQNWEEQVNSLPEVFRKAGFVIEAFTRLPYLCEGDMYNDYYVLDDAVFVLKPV
UniProt Q8NBP5: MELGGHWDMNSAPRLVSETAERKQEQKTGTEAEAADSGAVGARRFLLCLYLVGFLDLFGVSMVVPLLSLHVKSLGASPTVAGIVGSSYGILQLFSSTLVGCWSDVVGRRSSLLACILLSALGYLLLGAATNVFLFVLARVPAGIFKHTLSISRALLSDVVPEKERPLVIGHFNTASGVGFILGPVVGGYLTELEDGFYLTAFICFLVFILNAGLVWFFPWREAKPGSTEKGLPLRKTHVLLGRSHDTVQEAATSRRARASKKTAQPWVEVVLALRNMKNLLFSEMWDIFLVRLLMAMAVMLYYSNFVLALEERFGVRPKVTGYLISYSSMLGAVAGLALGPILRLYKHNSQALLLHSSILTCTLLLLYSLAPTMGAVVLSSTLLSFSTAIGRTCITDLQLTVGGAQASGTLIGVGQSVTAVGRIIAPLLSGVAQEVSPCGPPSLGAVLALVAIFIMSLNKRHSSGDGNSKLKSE
UniProt Q71F56: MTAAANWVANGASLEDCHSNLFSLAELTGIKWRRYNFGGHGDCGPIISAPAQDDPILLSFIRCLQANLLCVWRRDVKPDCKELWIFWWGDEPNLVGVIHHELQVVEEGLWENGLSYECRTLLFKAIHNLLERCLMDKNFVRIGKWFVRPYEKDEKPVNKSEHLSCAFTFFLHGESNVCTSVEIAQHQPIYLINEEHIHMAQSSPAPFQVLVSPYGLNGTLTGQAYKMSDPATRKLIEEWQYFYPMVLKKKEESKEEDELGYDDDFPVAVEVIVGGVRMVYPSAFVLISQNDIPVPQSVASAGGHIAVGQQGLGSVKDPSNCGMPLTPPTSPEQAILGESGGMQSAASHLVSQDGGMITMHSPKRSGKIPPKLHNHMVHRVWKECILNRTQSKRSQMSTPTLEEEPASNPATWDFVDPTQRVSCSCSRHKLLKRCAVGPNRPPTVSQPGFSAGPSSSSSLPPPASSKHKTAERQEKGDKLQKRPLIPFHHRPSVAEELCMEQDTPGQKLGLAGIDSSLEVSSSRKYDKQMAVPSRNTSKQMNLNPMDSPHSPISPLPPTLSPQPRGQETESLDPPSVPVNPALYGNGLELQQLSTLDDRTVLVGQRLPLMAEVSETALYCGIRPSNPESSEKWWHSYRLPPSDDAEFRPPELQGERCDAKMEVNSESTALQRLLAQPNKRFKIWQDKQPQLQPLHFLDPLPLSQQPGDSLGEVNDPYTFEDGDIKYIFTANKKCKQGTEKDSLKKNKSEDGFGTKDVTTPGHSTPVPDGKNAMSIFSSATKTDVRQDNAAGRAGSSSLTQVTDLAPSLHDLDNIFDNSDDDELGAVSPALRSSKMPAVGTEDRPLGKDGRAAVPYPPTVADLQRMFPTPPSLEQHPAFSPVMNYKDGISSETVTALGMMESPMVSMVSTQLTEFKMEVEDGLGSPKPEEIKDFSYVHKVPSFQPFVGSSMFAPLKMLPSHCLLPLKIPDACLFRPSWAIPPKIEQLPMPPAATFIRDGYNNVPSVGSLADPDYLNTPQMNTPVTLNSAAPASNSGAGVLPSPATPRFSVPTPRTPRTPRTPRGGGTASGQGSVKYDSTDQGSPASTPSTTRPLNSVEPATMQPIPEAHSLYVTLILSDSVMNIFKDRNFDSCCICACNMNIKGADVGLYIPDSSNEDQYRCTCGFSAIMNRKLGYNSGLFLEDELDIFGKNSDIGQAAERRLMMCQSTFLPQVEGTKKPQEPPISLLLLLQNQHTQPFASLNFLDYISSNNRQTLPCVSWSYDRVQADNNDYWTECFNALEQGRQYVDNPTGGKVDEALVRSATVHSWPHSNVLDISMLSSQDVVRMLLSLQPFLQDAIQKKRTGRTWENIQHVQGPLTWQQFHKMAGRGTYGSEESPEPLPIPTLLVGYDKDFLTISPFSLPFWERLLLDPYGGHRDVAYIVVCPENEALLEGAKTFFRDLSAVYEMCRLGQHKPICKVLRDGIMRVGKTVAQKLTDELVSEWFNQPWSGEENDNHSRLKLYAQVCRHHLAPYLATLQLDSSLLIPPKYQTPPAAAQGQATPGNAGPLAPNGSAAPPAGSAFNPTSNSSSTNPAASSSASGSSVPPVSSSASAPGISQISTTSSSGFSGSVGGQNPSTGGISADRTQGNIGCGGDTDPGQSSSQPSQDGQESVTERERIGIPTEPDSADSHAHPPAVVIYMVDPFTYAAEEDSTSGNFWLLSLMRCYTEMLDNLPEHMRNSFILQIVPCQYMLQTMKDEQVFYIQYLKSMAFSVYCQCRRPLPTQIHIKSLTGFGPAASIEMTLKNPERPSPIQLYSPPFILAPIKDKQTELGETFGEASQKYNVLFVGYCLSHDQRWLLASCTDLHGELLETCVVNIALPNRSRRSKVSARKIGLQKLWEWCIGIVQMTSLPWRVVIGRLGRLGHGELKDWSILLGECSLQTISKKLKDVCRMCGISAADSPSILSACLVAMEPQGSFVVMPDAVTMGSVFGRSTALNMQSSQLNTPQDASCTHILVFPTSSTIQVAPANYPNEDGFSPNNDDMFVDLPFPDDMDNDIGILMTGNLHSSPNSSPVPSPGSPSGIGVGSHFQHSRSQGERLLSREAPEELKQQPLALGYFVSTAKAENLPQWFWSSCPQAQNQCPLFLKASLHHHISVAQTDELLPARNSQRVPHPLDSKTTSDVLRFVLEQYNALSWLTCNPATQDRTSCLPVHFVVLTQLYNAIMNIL
UniProt Q8TCB7: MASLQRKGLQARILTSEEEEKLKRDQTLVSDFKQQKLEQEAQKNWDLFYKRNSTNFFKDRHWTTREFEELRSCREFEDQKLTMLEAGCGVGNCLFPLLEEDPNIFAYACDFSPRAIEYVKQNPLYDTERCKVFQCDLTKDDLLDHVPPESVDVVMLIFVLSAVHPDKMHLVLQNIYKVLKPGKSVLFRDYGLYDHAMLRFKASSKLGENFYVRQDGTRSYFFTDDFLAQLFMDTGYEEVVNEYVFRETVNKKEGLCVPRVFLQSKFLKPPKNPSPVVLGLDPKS
UniProt P42679: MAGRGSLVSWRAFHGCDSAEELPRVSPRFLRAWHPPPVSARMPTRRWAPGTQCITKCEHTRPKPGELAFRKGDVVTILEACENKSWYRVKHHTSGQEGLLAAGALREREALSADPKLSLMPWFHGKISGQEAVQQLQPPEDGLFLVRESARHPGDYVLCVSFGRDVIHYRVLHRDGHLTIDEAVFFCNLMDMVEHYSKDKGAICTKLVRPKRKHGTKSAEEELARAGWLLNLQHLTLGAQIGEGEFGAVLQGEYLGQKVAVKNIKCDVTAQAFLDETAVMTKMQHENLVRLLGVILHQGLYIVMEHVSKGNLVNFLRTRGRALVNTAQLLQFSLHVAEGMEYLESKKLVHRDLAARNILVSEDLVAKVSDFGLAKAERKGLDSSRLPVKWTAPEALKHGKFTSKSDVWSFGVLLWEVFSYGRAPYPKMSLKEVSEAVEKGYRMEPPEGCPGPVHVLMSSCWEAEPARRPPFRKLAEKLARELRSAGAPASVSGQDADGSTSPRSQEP
UniProt Q9Y3C7: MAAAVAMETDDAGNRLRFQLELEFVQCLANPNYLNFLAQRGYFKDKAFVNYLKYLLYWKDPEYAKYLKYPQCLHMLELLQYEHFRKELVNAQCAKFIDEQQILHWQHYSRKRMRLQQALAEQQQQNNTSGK

[2] = compound: CCn1c(C(=O)N(C2CC2)C2CC2)cc2c3c(ncn3C)c(Nc3cc(C)n(C)n3)nc21
Method in brief: as §1

[3] = compound: CCn1cc(-c2ccnc3[nH]c(-c4cccc(CN(C)C)c4)cc23)c(-c2ccc(NC(=O)N(C)C)cc2)n1
Method in brief: as §1

[4] = compound: CN(C)CC(=O)Nc1ccc2[nH]c(=O)c3ccccc3c2c1
Method in brief: as §1

[5] = compound: CN(CCOC1=CC=C(C=C1)C[C@H]2C(=O)NC(=O)S2)C3=CC=CC=N3 (racemic) [rosiglitazone]
Method in brief: as §1

[6] = compound: CN1C2=C(C3=C1C(=O)N(N=C3)CC4=CC(=CC=C4)N)SC(=C2)S(=O)C
Method in brief: as §1

[7] = compound: CN1CCC(CNc2ccc3ncc(-c4cccc(OC(F)(F)F)c4)n3n2)CC1
Method in brief: as §1

[8] = compound: CN1CCN(CCOc2cc(OC3CCOCC3)c3c(Nc4c(Cl)ccc5c4OCO5)ncnc3c2)CC1 [saracatinib]
Method in brief: as §1

[9] = compound: CN1CC[C@H](c2c(O)cc(O)c3c(=O)cc(-c4ccccc4Cl)oc23)[C@H](O)C1 [alvocidib]
Method in brief: as §1

[10] = compound: CN1CCc2c(c3ccccc3n2Cc2ccc(C(=O)NO)cc2)C1 [Tubastatin A]
Method in brief: as §1

[11] = compound: CNC(=O)C1=CC=CC=C1NC2=NC(=NC=C2Cl)NC3=C(C=C(C=C3)N4CCOCC4)OC
Method in brief: as §1

[12] = compound: CNC(=O)c1ccc(Nc2ncc(C(F)(F)F)c(NCc3nccnc3N(C)S(C)(=O)=O)n2)cc1 [defactinib]
Method in brief: as §1

[13] = compound: CNc1nc(-c2ccc3c(N)n[nH]c3c2)cc(N2C[C@@H](C(=O)NC3CCCCC3)CC[C@H]2C)n1
Method in brief: as §1

[14] = compound: COC(=O)[C@H](CCSC)NC(=O)C1=C(C=C(C=C1)NC[C@H](CS)N)C2=CC=CC=C2
Method in brief: as §1

[15] = compound: CC[C@H](C)N1C=C(C2=C(C=C(C=C21)C3=CN=C(C=C3)N4CCNCC4)C(=O)NCC5=C(C=C(NC5=O)C)C)C
Method in brief: as §1

[16] = compound: CC[C@H](C)[C@@H](C(=O)N[C@@H]([C@@H](C)O)C(=O)N[C@@H](CC(C)C)C(=O)[C@]1(CO1)C)NC(=O)[C@H]([C@@H](C)CC)N(C)C(=O)C [epoxomicin]
Method in brief: as §1

[17] = compound: CN1CCN(c2nc(C3=C(c4c[nH]c5ccccc45)C(=O)NC3=O)c3ccccc3n2)CC1 [sotrastaurin]
Method in brief: as §1

[18] = compound: CC[C@@H]1C(=O)N(C)c2cnc(Nc3ccc(C(=O)NC4CCN(C)CC4)cc3OC)nc2N1C1CCCC1
Method in brief: as §1

[19] = compound: CNCc1ccc(-c2[nH]c3cc(F)cc4c3c2CCNC4=O)cc1 [rucaparib]
Method in brief: as §1

[20] = compound: COC(=O)N[C@@H](C)CNc1nccc(-c2cn(C(C)C)nc2-c2cc(Cl)cc(NS(C)(=O)=O)c2F)n1 [encorafenib]
Method in brief: as §1

Measured: log2 fold change

METTL9 (UniProt Q9H1A3)
inactive: [1] -0.021 | [2] 0.003 | [3] 0.02 | [4] 0.314 | [5] -0.001 | [6] 0.173 | [7] -0.114 | [8] 0.056 | [9] 0.098 | [10] 0.068 | [11] -0.037 | [12] -0.086 | [13] -0.24 | [14] -0.028

MFSD9 (UniProt Q8NBP5)
inactive: [1] 0.046 | [15] -0.019 | [2] 0.17 | [6] 0.02 | [8] 0.071 | [9] -0.027 | [11] -0.1 | [13] -0.141

MED13L (UniProt Q71F56)
inactive: [1] -0.211 | [16] 0.021 | [2] -0.148 | [4] 0.115 | [9] 0.025 | [11] -0.012 | [12] -0.08 | [14] 0

METTL6 (UniProt Q8TCB7)
inactive: [1] 0.022 | [16] -0.17 | [2] -0.067 | [3] -0.043 | [5] 0.004 | [6] 0.046 | [7] -0.186 | [8] -0.147 | [17] 0.108 | [9] -0.041 | [10] -0.022 | [11] 0.202 | [13] 0.027

MATK isoform 2 (UniProt P42679)
inactive: [15] -0.047 | [4] 0.169 | [6] -0.205 | [8] -0.008 | [9] 0.17 | [12] -0.03 | [13] 0.177 | [14] -0.173

MED31 (UniProt Q9Y3C7)
inactive: [18] 0.203 | [15] -0.027 | [4] -0.151 | [12] -0.098 | [19] 0.184 | [20] -0.022 | [14] -0.075

From the supplement of paper PMC10849652
